Results deposited as PubChem BioAssay AID1053208 (Peter MacCallum Cancer Centre, 2014)
The deposit covers about 17,000 reagents; below is a random part of them. Of all reagents, 788 (4.7%) were called active. 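Calls rest on z-score classes alone; an extra cut-off of viability at most 70% of control was not applied to them.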 Entries without a mark were called inactive. Reagents against one gene are numbered here. Not all columns of the deposit are shown. Reagent sequences are not shown.

- Screen: 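Find knock-downs that sensitise mouse osteosarcoma cells to doxorubicin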 (primary screen)
- Cell system: mouse osteosarcoma cells, early-passage culture from an engineered mouse model of fibroblastic bone tumour
- Reagents: siRNA pool against mouse genes, 40 nM
- Timing: about 120 h (48 h before drug, then 72 h with drug)
- Challenge: doxorubicin 100 nM for 72 h, roughly 30-40% inhibitory dose
- Read-out: 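Viability read as ATP luminescence after 72 h of 100 nM doxorubicin or none, duplicate wells averaged, scaled to non-targeting siRNA, then expressed as robust z-scores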
- Reading the numbers: viability z-score with doxorubicin: higher = more viable cells under doxorubicin; viability z-score without drug: higher = more viable cells with knock-down alone
- Rule for the call: 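Called active if knock-down leaves viability unchanged without drug (z within -2 to 2) but lowers it with doxorubicin (z at or under -2)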

gene symbol | reagent no. | combined z-score class | viability z-score with doxorubicin | viability z-score without drug
Mgat4c (MGAT4 family, member C) | 1 | no change with or without drug | 0 | 1.35
Ndufa2 (NADH:ubiquinone oxidoreductase subunit A2) | 1 | no change with or without drug | 0.9 | -1.18
Adra2b (adrenergic receptor, alpha 2b) | 1 | no change with or without drug | -0.22 | -0.84
Foxl1 (forkhead box L1) | 1 | no change with or without drug | 0 | 0.17
Arxes1 (adipocyte-related X-chromosome expressed sequence 1) | 1 | no change with or without drug | -0.11 | -0.51
Ibsp (integrin binding sialoprotein) | 1 | low cell count without drug only | -0.22 | -2.02
Bpi (bactericidal permeablility increasing protein) | 1 | no change with or without drug | 0.22 | 0.51
Stkld1 (serine/threonine kinase-like domain containing 1) | 1 | no change with or without drug | -1.12 | -1.18
Ube2k (ubiquitin-conjugating enzyme E2K) | 1 | high cell count without drug only | 1.12 | 2.7
Cnn2 (calponin 2) | 1 | low cell count with doxorubicin only (active) | -2.47 | -0.51
Heyl (hairy/enhancer-of-split related with YRPW motif-like) | 1 | no change with or without drug | 1.01 | 0.84
Iqch (IQ motif containing H) | 1 | no change with or without drug | -0.22 | -0.34
Coa5 (cytochrome C oxidase assembly factor 5) | 1 | no change with or without drug | 0.9 | 1.01
Coa5 (cytochrome C oxidase assembly factor 5) | 2 | high cell count without drug only | 0.45 | 2.19
St8sia4 (ST8 alpha-N-acetyl-neuraminide alpha-2,8-sialyltransferase 4) | 1 | no change with or without drug | -0.67 | -1.18
Rprd1b (regulation of nuclear pre-mRNA domain containing 1B) | 1 | high cell count with doxorubicin only | 2.25 | 1.35
Hsd3b4 | 1 | no change with or without drug | 1.57 | -0.34
Ndst1 (N-deacetylase/N-sulfotransferase (heparan glucosaminyl) 1) | 1 | no change with or without drug | -0.34 | -1.52
Ankrd1 (ankyrin repeat domain 1) | 1 | no change with or without drug | -1.24 | -1.18
Fstl5 (follistatin-like 5) | 1 | no change with or without drug | 0.34 | 0.84
Fabp9 (fatty acid binding protein 9, testis) | 1 | no change with or without drug | 0.34 | 0.51
Rassf1 (Ras association (RalGDS/AF-6) domain family member 1) | 1 | no change with or without drug | 0.67 | 1.85
Elovl4 (ELOVL fatty acid elongase 4) | 1 | no change with or without drug | 0 | 0.17
Chpt1 (choline phosphotransferase 1) | 1 | no change with or without drug | 0.22 | -0.84
Ttc19 (tetratricopeptide repeat domain 19) | 1 | no change with or without drug | 1.46 | 0.17
Cnnm1 (cyclin M1) | 1 | no change with or without drug | -0.45 | -0.17
H3c1 (H3 clustered histone 1) | 1 | no change with or without drug | 0.79 | -0.17
Cox7a2l (cytochrome c oxidase subunit 7A2 like) | 1 | no change with or without drug | -0.56 | -1.85
Gmeb1 (glucocorticoid modulatory element binding protein 1) | 1 | no change with or without drug | -0.79 | -1.18
Plekha5 (pleckstrin homology domain containing A5) | 1 | no change with or without drug | -0.9 | 0.84
Vasp (vasodilator-stimulated phosphoprotein) | 1 | no change with or without drug | 0 | -0.34
Lynx1 (Ly6/neurotoxin 1) | 1 | no change with or without drug | -0.11 | 0
Iffo2 (intermediate filament family orphan 2) | 1 | low cell count with doxorubicin only (active) | -2.25 | -0.67
Xrcc6 (X-ray repair cross complementing 6) | 1 | no change with or without drug | 0.45 | -0.17
Copg1 (coatomer protein complex, subunit gamma 1) | 1 | low cell count with and without drug | -5.06 | -2.19
Serpina3c (serine (or cysteine) peptidase inhibitor, clade A, member 3C) | 1 | no change with or without drug | 0.34 | 0.51
Hif3a (hypoxia inducible factor 3, alpha subunit) | 1 | high cell count without drug only | 0.67 | 2.36
Slc35a1 | 1 | no change with or without drug | 0.34 | 0.51
Pcnt (pericentrin (kendrin)) | 1 | no change with or without drug | -1.24 | -0.84
Tnik (TRAF2 and NCK interacting kinase) | 1 | no change with or without drug | 0.45 | 1.18
Sntn (sentan, cilia apical structure protein) | 1 | no change with or without drug | -0.9 | -1.35
Amn (amnionless) | 1 | no change with or without drug | -1.01 | -0.17
Prss27 (serine protease 27) | 1 | low cell count without drug only | 0.9 | -2.53
Prl4a1 (prolactin family 4, subfamily a, member 1) | 1 | high cell count without drug only | 0.56 | 2.19
Cetn4 (centrin 4) | 1 | no change with or without drug | -0.22 | 0.84
Hadha | 1 | no change with or without drug | -1.69 | -0.67
Arpin (actin-related protein 2/3 complex inhibitor) | 1 | no change with or without drug | 0.67 | 1.52
Mcfd2 (multiple coagulation factor deficiency 2) | 1 | low cell count without drug only | -0.22 | -2.19
Top2b (topoisomerase (DNA) II beta) | 1 | no change with or without drug | 0.22 | 0
Mknk2 (MAP kinase-interacting serine/threonine kinase 2) | 1 | high cell count with doxorubicin only | 2.14 | -0.84

In a second layout: results already given.
| gene symbol | reagent no. | combined z-score class | viability z-score with doxorubicin | viability z-score without drug |
| --- | --- | --- | --- | --- |
| Pcnt (pericentrin (kendrin)) | 1 | no change with or without drug | -1.24 | -0.84 |
| Tnik (TRAF2 and NCK interacting kinase) | 1 | no change with or without drug | 0.45 | 1.18 |
| Sntn (sentan, cilia apical structure protein) | 1 | no change with or without drug | -0.9 | -1.35 |
| Amn (amnionless) | 1 | no change with or without drug | -1.01 | -0.17 |
| Prss27 (serine protease 27) | 1 | low cell count without drug only | 0.9 | -2.53 |
| Prl4a1 (prolactin family 4, subfamily a, member 1) | 1 | high cell count without drug only | 0.56 | 2.19 |
| Cetn4 (centrin 4) | 1 | no change with or without drug | -0.22 | 0.84 |
